Reference: patent publication US20200255543A1 (ROCKEFELLER UNIVERSITY, published 2020)
No constants are given. Whether binding was seen depends on the method and setting. Some binding calls cover weakened binding; strength is not graded here. Blank lines part the entries; values can stand above or below the binder they belong to.

What was measured:
[1] = molecular target: T1, recombinant human MERTK (human, UniProt Q12866 21-505, limits assumed); assay: biolayer interferometry
T1 construct: Analyte in solution in biolayer interferometry; also called hMer
T1 sequence: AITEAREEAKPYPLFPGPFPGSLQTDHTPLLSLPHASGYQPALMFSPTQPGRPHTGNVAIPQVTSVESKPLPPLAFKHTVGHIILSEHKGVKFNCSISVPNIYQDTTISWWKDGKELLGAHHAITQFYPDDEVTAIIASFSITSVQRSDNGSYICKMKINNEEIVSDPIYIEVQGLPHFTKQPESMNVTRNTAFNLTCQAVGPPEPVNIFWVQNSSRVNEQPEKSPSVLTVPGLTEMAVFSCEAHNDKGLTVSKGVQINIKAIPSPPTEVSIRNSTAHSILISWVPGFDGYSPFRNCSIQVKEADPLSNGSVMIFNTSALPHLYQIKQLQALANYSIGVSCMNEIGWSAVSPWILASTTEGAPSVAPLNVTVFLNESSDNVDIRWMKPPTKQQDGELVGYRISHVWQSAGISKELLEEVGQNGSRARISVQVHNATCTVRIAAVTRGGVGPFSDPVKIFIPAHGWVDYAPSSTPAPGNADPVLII

[2] = molecular target: T2, recombinant mouse MERTK (mouse, UniProt Q60805 23-496, limits assumed); assay: biolayer interferometry
T2 construct: Analyte in solution in biolayer interferometry; also called msMer; murine MERTK
T2 sequence (looked up): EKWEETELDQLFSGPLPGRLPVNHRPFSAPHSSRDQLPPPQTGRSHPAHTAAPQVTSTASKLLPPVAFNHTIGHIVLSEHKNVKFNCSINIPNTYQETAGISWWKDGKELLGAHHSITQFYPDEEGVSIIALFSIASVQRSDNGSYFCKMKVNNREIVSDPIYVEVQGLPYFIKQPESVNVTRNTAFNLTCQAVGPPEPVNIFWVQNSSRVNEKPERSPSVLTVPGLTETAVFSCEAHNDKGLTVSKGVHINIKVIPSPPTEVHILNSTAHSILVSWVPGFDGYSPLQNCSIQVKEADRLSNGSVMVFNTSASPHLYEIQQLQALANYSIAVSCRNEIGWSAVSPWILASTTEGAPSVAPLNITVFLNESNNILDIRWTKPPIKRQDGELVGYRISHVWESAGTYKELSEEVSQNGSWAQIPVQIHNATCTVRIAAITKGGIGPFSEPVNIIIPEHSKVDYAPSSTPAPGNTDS

binding [1]: binds
B1: monoclonal antibody M6 (antibody, V domains shown)
VH: QVKLEESGPELKKPGETVKISCKASGYTFTNYGMNWVKQAPGKGLKWMGWINTYTGEPTYADDFKGRFVFSLETSASTAYLQINNLKNEDMATYFCARKSTVVSRYFDVWGAGTTVTVSS
VL: DIVLTQTHKFMSTSVGDRVSITCKASQDVGDAVTWCQQKPGQPPKLLIYWASTRHTGVPDRFTGSGSGTDFTLTINNVQSEDLADYFCQQYRSYPLTFGAGTKLELKR
notes: Mouse hybridoma monoclonal antibody; Hybridoma supernatant was used in the ELISA screen, purified antibody in biolayer interferometry; also called Mer-M6

binding [1]: binds | binding [2]: binds
B2: monoclonal antibody M19 (antibody, V domains shown)
VH: EVQLEESGPDLKKPGETVKISCKASNYTFTDYSMHWVKQAPGKGLKWVGWINTDTGEPTYADDFKGRFAFSLETSASTAYLQINNLKNEDTATYFCARWFGAMDYWGQGTSVTVSS
VL: DIVITQSHKFMSTSVGDRVSITCKASQDVTNVVAWYQQKPGQSPKLLIYSASYRYTGVPDRFTGSGSGTDFTFTISSVQAEDLAVYYCQQYYRTPRTFGGGTKLEIKR
notes: Mouse hybridoma monoclonal antibody; Hybridoma supernatant was used in the ELISA screen, purified antibody in biolayer interferometry; also called Mer-M19
